Experimental findings from BindingDB's records for doi:10.1046/j.1471-4159.1996.66010047.x (University of Washington, 1996) are described below.

The chains behind the UniProt entries cited, without tags or fusion partners.
UniProt P50406, whole entry: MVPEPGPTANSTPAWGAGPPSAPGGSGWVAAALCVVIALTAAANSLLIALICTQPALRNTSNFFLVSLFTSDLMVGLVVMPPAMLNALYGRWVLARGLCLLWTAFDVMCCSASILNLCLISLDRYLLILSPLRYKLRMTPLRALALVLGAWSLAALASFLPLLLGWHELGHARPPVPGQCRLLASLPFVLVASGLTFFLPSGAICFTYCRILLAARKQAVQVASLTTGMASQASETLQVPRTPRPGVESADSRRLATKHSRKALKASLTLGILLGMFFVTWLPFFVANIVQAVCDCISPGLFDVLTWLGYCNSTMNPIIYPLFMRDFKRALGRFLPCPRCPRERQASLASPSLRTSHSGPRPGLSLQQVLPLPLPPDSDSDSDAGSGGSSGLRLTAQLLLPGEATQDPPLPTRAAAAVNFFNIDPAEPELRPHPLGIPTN

This assay deals with 5-hydroxytryptamine receptor 6 (Homo sapiens, UniProt P50406).

For the compound `OCCOCCN1CCN(C2=Nc3ccccc3Sc3ccccc32)CC1` [2-[2-(4-dibenzo[b,f][1,4]thiazepin-11-ylpiperazin-1-yl)ethoxy]ethanol], the Ki came to 33 nM.

One may read the Ki as the equilibrium dissociation constant of an inhibitor or competing ligand from its target. The low end stands for tighter binding, the high end for weaker binding.
